# PubChem BioAssay AID540276 (National Center for Advancing Translational Sciences (NCATS), 2011)
# Out of some 300,000 compounds screened, about 5,400 (1.8%) were called active. The shares of active, inactive and inconclusive entries below differ from those in the screen. The call rests on the fitted dose curve; tested in HEK293 cells. Potencies of inconclusive entries are doubtful fits and often do not repeat.
# Test: qHTS for inhibitors of binding or entry into cells for Marburg Virus
# Conditions: Marburg virus pseudotyped entry inhibition, cell reporter; activity change, negative = inhibition: at 37.8 µM (top of the series) unless noted
# On the % scale 0 is the no-effect control and ±100 the full control effect; potency means the concentration at half of the fitted maximal effect.
SMILES,Potency,"activity change, negative = inhibition"
CC(=O)Nc1ccc(S(=O)(=O)N2C3CCCC2CC(NC(=O)C2CCCCC2)C3)cc1 (stereo not given),"inconclusive: 23.1 µM [inhibitor, single point]",
Cc1ccc(S(=O)(=O)N(CC(O)CN2C(=O)NC(C)(C)C2=O)c2cccc(C)c2)cc1 (stereo not given),,inactive: 8.8% [at 46.1 µM]
COc1ccc(NC(=O)c2cccnc2SC)cc1OC,"inconclusive: 12.6 µM [activator, partial curve, poor fit]",
CCOCCc1nnc(NC(=O)c2cc(OC)c(OC)c(OC)c2)s1,,inactive: 2.8%
Cc1onc(-c2c(Cl)cccc2Cl)c1C(=O)N/N=C(\N)COc1ccc(Cl)cc1,"inconclusive: 20.6 µM [inhibitor, partial curve, poor fit]",
CC(=O)OC(C)(C)/C=C/C(=O)C(C)(O)C1[C@H](O)C[C@@]2(C)C3CC=C4C(CC[C@@H](O)C4(C)C)[C@]3(CO)C(=O)C[C@]12C (stereo not given in full),active: 0.251 µM,
CN(C)Cc1nc2c(c(=O)[nH]1)C1(CCCCC1)Cc1ccccc1-2,"inconclusive: 29.1 µM [inhibitor, single point]",
COC(=O)C1=C(C)N(c2ccc(Cl)cc2)/C(=C/c2cccs2)C1=O,"inconclusive: 1.26 µM [activator, single point]",
C[C@H](Cc1ccccc1)Nc1ncnc2c1ncn2[C@@H]1O[C@H](CO)[C@H](O)[C@H]1O,,inactive: 23.3%
COc1ccc(C(=O)NCc2oc(-c3ccccc3)cc2C(=O)O)cc1,,inactive: 2.41%
Cc1cc(C)c(S(=O)(=O)Nc2ccccc2-c2ccccc2)c(C)c1,"inconclusive: 28.2 µM [inhibitor, partial curve, poor fit]",
Clc1ccc(CN2CCN(c3ccccc3)CC2)cn1,"inconclusive: 1.12 µM [activator, partial curve, poor fit]",
COCC(C)NC(=O)CSc1nnc(-c2cccc(S(=O)(=O)N3CCCCC3)c2)o1 (stereo not given),"inconclusive: 3.98 µM [inhibitor, single point]",
O=S(=O)(Nc1cc(Sc2cccc3cccnc23)c(O)c2ccccc12)c1ccccc1,"inconclusive: 14.6 µM [inhibitor, partial curve, poor fit]",
CCOc1ccc(CC(=NCCO)C2=C(O)CC(C)(C)CC2=O)cc1OCC,"inconclusive: 4.47 µM [activator, full curve]",
N#Cc1c(N)n(CCCN2CCOCC2)c2nc3ccccc3nc12,"inconclusive: 6.31 µM [inhibitor, full curve, poor fit]",
Nc1nc(SCC(=O)Nc2cccc(C(F)(F)F)c2)n[nH]1,,inactive: -0.689% [at 46.1 µM]
Cc1nn(-c2ccccc2)c(C)c1/C=N/NC(=O)CSc1nnc(SCc2ccccc2Cl)s1,"inconclusive: 3.16 µM [activator, single point]",
CN(C)S(=O)(=O)c1cc(NC(=O)c2ccc(-n3ccnc3)c([N+](=O)[O-])c2)ccc1Cl,"inconclusive: 29.1 µM [inhibitor, single point]",
Nc1nc(-c2ccc3c(c2)NC(=O)CO3)cs1,,inactive: -19.5%
CN(C)/C=C/C(=O)c1ccc2noc(-c3ccccc3)c2c1,,inactive: 5.17% [at 46.1 µM]
Cc1occc1C(=O)NCCc1ccc(Cl)cc1,,inactive: -2.97%
CC(SCc1ccccc1)C(=O)Nc1ccc2c(c1)OCO2 (stereo not given),,inactive: 21.9%
CC(C)(C)c1ccc(OCC(=O)N/N=C/C2CC=CCC2)cc1 (stereo not given),,inactive: -25%

# Sorted by SMILES length (largest number first): part of the list above.
SMILES,Potency,"activity change, negative = inhibition"
C[C@H](Cc1ccccc1)Nc1ncnc2c1ncn2[C@@H]1O[C@H](CO)[C@H](O)[C@H]1O,,inactive: 23.3%
Cc1nn(-c2ccccc2)c(C)c1/C=N/NC(=O)CSc1nnc(SCc2ccccc2Cl)s1,"inconclusive: 3.16 µM [activator, single point]",
CC(C)(C)c1ccc(OCC(=O)N/N=C/C2CC=CCC2)cc1 (stereo not given),,inactive: -25%
N#Cc1c(N)n(CCCN2CCOCC2)c2nc3ccccc3nc12,"inconclusive: 6.31 µM [inhibitor, full curve, poor fit]",
COc1ccc(NC(=O)c2cccnc2SC)cc1OC,"inconclusive: 12.6 µM [activator, partial curve, poor fit]",

# Later entries.

SMILES,Potency,"activity change, negative = inhibition"
CC(C)C[C@H]1COc2cc(NC3CC3)ccc2S(=O)(=O)N1,"inconclusive: 0.0887 µM [activator, full curve, poor fit]",
CCOc1cccc(C(=O)N(Cc2ccc(N(C)C)cc2)CC2CCCO2)c1 (stereo not given),,inactive: -4.44% [at 46.1 µM]
Cn1c(=O)n(C)c2cc(N3CCOCC3)c(NS(=O)(=O)c3ccc(C(C)(C)C)cc3)cc21,"inconclusive: 35.5 µM [activator, single point]",
CCc1ccc(CNCc2c(C(=O)O)c(C)n(Cc3c(F)cccc3Cl)c2C)cc1,"inconclusive: 11.2 µM [inhibitor, single point]",
COc1ccccc1NS(=O)(=O)c1cc(NC(=O)CN2C(=O)NC3(CCCC3)C2=O)ccc1C,"inconclusive: 0.562 µM [inhibitor, full curve]",
CC[C@@]1(C)Cc2c(sc3c2c(=O)n(C)c2nnc(SCc4ccc5c(c4)OCO5)n32)CO1,,inactive: -16.7%
Cc1ccccc1CC1C(=O)Nc2ccc(Br)cc21 (stereo not given),,inactive: -1.23% [at 46.1 µM]
Cc1cccc2cc3c(NC(=O)c4ccccn4)nn(C)c3nc12,"inconclusive: 3.55 µM [activator, full curve, poor fit]",
COc1ccc(-c2cc(C#N)nc(NN)n2)cc1,"inconclusive: 35.5 µM [inhibitor, single point]",
O=C(NCc1ccncc1)C1CCCN(S(=O)(=O)c2cc(Cl)ccc2Cl)C1 (stereo not given),"inconclusive: 35.5 µM [inhibitor, partial curve, poor fit]",
CC(=O)c1c(N2CCN(C)CC2)nc(=S)n(-c2cc(C)ccc2C)c1C,,inactive: 0.768% [at 46.1 µM]
CSc1nsc(SCC(=O)N2CCCCC2)n1,"inconclusive: 35.5 µM [activator, single point]",
COc1cccc(-n2c(=O)c3c(C)c(C)sc3n(CC(=O)Nc3ccccc3OC)c2=O)c1,"inconclusive: 2.24 µM [inhibitor, partial curve, poor fit]",
COC(=O)c1ccccc1SC(CC(=O)c1ccccc1)c1ccc(F)cc1 (stereo not given),,inactive: -21.8%
COc1ccc(NC(=O)CN2CCC(C(N)=O)CC2)cc1,"inconclusive: 15.8 µM [activator, partial curve, poor fit]",
CC(=O)OC[C@H]1O[C@H](CCO/N=C/[C@@H](C)[C@H](OCc2ccccc2)C(C)C)C=C[C@@H]1OC(C)=O,"inconclusive: 0.0473 µM [activator, full curve, poor fit]",
Cc1ccc(N(C)S(=O)(=O)c2cc(-c3cnc(C4CC4)o3)ccc2C)cc1,"inconclusive: 35.5 µM [inhibitor, single point]",
O=CNc1c(Br)cc2c(c1Br)Cc1cc(Br)ccc1-2,,inactive: 11.9%
COC(=O)C1=C(C)N(c2ccc(F)c(Cl)c2)C(=O)C1,,inactive: 2.59%
NC(=S)Nc1cnc2ccccc2c1,,inactive: 2.17%
CN(CCC1CCCCO1)C(=O)c1cc(COc2ccc(F)cc2F)on1 (stereo not given),"inconclusive: 14.1 µM [activator, partial curve, poor fit]",
CN(C)c1nc(C=C(C#N)C#N)c(Cl)n1-c1ccc(F)cc1,"inconclusive: 11.2 µM [inhibitor, partial curve, poor fit]",
CC(=O)C1CCC2C3CC(C)=C4CC(O)CCC4(C)C3CCC12C (stereo not given),"inconclusive: 35.5 µM [inhibitor, single point]",
CC(C)(Oc1ccc(Cl)cc1)C(=O)NC1CCCCC1,,inactive: -0.442%

SMILES,Potency,"activity change, negative = inhibition"
Cc1ccc(CSCCNC(=O)c2ccc(C)cc2)cc1,"inconclusive: 10 µM [inhibitor, partial curve, poor fit]",
O=C(COc1ccccc1)N1CCN(c2ccccc2)CC1,"inconclusive: 6.31 µM [activator, single point]",
CCN1CCc2c(sc(N)c2C(N)=O)C1,"inconclusive: 0.447 µM [activator, partial curve, poor fit]",
CCn1cc(C(=O)O)c(=O)c2cc(F)c(N3CCN(C(=S)NC(=O)c4ccccc4Br)CC3)cc21,,inactive: 16.1% [at 46.1 µM]
CCOc1ccc(C(=O)CCN2CCCCC2)cc1,,inactive: -8.04%
N#C/C(=C\c1ccncc1)c1nc2ccccc2c(=O)[nH]1,"inconclusive: 0.316 µM [inhibitor, full curve, poor fit]",
Cc1cccc(C)c1N=C1SC(CC(=O)Nc2c(C)cccc2C)C(=O)N1CCc1ccccn1 (stereo not given),,inactive: 15%
CCC(C)c1ccc(OCCn2cc(/C=N/NC(=O)CSc3nnc(C)s3)c3ccccc32)cc1 (stereo not given),"inconclusive: 0.461 µM [inhibitor, full curve, poor fit]",
CCOc1ccc(OCc2cccc(C(=O)N/N=C/c3cccnc3)c2)cc1,active: 0.316 µM,
Cc1ccc(S(=O)(=O)N2CCOCC2)cc1C(=O)N1CCN(c2ccc(C(F)(F)F)cn2)CC1,"inconclusive: 12.6 µM [inhibitor, partial curve, poor fit]",
Fc1ccccc1NC(=S)NCCc1ccc(Cl)cc1,"inconclusive: 6.31 µM [activator, partial curve, poor fit]",
Cn1c(=O)c2c(nc(CCC3CCCC3)n2C)n(C)c1=O,"inconclusive: 6.31 µM [inhibitor, single point]",
O=S(=O)(Nc1ccc2ccccc2c1)N1CCCCC1,"inconclusive: 6.31 µM [inhibitor, partial curve, poor fit]",
CN1CCN(C(=O)COc2ccc3ccccc3c2)CC1,"inconclusive: 12.6 µM [activator, single point]",
CCCN(CCC)c1nc2ccccc2nc1C(C#N)C(=O)OC(C)COC (stereo not given),"inconclusive: 0.1 µM [activator, full curve, poor fit]",
CC1Sc2ccc(S(=O)(=O)N3CCC(C(=O)NCC(C)c4ccccc4)CC3)cc2NC1=O (stereo not given),,inactive: -29.1% [at 46.1 µM]
Cc1cccc(NS(=O)(=O)c2ccc3c(c2)[C@H]2C=CC[C@H]2[C@@H](c2ccc(F)cc2)N3)c1,,inactive: -3.82% [at 46.1 µM]
Cc1cc(C(=O)NN=C(CCC(=O)O)c2cccs2)c(C)o1,,inactive: -1.16%
Cc1oc(-c2ccc(Cl)cc2)nc1CS(=O)CC(=O)NC1CCCC1 (stereo not given),,inactive: 0.834% [at 46.1 µM]
C=CCn1c(=O)c2ccccc2n2c(SCc3nc4ccccc4s3)nnc12,,inactive: 13%
O=C(C(=O)N1CCN(c2ccccc2)CC1)c1cn(CC(=O)N2CCCCCC2)c2ccccc12,"inconclusive: 1 µM [inhibitor, full curve, poor fit]",
CC(=O)c1cc(C#N)c(SCCC(C)C)nc1C,,inactive: -1.06%
